Publication PMC3143158

Chains of the proteins cited; added tags and fusions are not shown. Lines headed by an entry give the natural chain unless they say otherwise; changes in a name come on top. Residues count along the entry.
UniProt Q9NTX7, residues 2-359: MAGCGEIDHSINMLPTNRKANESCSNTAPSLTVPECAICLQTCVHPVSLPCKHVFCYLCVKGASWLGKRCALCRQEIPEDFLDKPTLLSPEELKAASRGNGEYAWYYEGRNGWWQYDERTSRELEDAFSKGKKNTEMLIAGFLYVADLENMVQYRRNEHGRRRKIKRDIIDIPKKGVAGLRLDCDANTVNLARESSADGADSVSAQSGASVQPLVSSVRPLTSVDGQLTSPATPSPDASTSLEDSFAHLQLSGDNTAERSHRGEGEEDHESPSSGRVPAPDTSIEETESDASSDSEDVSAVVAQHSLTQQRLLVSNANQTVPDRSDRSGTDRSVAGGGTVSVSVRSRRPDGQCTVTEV
UniProt Q9ULT8: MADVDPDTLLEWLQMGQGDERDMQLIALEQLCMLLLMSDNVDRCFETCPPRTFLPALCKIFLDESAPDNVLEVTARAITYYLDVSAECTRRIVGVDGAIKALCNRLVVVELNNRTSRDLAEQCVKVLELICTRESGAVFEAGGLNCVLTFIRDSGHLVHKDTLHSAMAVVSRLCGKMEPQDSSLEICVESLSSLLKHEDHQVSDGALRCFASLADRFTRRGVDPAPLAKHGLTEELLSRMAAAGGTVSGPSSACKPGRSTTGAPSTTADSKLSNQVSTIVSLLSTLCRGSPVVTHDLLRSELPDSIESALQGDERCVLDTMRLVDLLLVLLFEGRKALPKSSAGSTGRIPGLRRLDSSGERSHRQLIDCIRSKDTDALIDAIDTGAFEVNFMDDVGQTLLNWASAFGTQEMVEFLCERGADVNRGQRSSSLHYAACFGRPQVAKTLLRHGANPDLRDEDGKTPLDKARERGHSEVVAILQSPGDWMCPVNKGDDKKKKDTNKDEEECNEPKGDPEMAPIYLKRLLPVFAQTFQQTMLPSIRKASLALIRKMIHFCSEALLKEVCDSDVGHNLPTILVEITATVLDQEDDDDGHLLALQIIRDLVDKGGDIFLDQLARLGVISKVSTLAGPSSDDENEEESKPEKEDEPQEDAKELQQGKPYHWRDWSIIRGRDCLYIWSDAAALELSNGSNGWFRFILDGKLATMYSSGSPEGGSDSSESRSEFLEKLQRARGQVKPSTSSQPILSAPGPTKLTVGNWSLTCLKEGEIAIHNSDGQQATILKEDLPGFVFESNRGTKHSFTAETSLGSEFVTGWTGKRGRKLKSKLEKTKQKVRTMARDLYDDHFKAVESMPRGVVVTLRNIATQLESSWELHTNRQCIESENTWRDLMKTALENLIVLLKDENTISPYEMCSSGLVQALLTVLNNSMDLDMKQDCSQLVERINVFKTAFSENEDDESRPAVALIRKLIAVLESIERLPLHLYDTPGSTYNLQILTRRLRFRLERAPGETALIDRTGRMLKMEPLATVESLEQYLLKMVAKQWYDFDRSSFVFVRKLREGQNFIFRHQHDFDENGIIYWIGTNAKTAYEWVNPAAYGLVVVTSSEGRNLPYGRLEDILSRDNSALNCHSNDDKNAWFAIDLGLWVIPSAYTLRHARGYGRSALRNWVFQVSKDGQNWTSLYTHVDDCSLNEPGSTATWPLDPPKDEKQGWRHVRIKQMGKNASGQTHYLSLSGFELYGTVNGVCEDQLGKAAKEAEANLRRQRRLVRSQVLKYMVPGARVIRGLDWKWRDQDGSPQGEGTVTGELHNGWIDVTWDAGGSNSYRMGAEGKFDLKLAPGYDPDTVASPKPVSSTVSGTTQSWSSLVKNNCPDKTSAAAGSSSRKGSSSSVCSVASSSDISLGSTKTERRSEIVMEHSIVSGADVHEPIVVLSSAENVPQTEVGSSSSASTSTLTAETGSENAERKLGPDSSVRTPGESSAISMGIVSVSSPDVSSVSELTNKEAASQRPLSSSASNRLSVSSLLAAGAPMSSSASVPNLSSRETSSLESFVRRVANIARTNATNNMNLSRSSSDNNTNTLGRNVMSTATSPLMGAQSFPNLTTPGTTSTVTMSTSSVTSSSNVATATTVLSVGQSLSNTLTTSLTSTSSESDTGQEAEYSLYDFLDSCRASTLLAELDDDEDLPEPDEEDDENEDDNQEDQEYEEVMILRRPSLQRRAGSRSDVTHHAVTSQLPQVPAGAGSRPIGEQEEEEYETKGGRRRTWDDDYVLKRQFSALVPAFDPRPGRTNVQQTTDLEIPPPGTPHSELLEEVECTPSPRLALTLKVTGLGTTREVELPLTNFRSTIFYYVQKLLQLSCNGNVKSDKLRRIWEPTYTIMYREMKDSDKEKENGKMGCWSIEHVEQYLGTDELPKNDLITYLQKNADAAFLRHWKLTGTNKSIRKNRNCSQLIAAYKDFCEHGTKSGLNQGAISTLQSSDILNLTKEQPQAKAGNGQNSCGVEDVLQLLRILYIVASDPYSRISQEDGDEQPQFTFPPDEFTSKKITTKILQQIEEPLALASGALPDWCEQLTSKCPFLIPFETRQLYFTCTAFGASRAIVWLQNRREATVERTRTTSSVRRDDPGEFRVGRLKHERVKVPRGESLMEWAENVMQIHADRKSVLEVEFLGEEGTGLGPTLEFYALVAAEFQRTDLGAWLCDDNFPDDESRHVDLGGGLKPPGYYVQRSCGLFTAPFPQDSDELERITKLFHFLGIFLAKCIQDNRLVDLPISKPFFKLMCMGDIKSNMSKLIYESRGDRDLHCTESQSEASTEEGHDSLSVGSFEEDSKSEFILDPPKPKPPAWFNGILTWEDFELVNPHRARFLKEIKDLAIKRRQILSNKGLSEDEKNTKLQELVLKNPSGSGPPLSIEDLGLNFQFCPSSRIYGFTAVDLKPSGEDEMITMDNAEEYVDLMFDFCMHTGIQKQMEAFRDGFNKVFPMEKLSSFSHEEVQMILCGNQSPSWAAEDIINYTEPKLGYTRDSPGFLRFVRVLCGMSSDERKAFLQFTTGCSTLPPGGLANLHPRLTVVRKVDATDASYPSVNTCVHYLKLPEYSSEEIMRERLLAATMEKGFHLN
UniProt P09874: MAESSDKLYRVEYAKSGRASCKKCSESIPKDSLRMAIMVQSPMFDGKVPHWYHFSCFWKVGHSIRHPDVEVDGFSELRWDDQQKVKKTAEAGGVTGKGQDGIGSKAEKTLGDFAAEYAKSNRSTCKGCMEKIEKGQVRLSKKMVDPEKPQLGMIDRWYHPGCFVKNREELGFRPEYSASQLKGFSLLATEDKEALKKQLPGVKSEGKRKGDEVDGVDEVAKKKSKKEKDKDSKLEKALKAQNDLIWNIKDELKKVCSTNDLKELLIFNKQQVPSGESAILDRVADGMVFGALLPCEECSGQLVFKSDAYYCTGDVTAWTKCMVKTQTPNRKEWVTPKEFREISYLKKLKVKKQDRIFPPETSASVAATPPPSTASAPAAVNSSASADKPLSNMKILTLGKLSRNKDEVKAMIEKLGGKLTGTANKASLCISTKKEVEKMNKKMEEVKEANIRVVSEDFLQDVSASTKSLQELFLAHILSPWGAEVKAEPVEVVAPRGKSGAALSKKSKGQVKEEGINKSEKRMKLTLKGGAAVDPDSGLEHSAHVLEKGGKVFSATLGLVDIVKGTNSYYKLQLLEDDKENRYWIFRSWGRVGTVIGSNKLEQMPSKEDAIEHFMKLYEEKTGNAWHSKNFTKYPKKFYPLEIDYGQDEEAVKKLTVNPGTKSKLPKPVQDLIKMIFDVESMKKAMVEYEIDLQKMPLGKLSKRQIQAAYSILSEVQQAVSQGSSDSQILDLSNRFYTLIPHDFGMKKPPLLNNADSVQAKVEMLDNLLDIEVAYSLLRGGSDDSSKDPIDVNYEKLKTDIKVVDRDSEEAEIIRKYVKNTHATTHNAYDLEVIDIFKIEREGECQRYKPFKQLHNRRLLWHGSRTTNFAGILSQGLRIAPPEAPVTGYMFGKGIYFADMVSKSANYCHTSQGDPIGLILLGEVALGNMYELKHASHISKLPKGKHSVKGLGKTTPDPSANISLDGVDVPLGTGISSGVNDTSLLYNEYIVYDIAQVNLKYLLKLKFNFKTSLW
UniProt Q9UGN5: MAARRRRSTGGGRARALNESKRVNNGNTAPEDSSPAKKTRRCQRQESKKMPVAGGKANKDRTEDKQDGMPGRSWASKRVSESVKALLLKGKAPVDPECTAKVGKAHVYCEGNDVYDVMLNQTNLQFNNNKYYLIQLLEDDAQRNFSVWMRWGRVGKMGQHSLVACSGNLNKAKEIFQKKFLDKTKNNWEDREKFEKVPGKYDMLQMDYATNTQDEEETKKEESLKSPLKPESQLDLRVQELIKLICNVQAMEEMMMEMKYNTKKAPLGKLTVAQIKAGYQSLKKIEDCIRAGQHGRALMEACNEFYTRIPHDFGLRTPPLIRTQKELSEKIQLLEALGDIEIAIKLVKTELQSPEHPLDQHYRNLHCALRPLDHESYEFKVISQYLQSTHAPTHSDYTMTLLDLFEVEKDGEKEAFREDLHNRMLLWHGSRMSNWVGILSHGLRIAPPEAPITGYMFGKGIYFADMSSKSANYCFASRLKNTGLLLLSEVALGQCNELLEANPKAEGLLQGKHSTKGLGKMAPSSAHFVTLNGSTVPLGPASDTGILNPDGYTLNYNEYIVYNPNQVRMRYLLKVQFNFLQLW

Experiments:
Test in all cases: affinity purification with mass spectrometry; HA-tagged RNF146 wildtype, ΔRING or control HECTD1 expressed in HEK293 cells, isolated from 3.5 mg lysate with anti-HA 3F10 affinity matrix; Coomassie-stained gel bands excised for LC-MS/MS
[1] = target: HA-tagged wildtype RNF146 (human) (UniProt Q9NTX7)
[2] = target: HA-tagged HECTD1 (control E3 ligase) (UniProt Q9ULT8)
[3] = target: HA-tagged RNF146ΔRING (human) (UniProt Q9NTX7)
[4] = target: HA-tagged HECTD1 (control E3 ligase), Q9ULT8; settings: remark: other sources report otherwise

| binding [2] | binding [3] | Molecule | further results |
| --- | --- | --- | --- |
| – | – | HECT-type ubiquitin E3 ligase HUWE1 (endogenous) (from UniProt Q7Z6Z7 1-4374) (enzyme) | binding [1]: binds |
| no binding | – | PARP1 (endogenous) (from UniProt P09874 1-1014) (enzyme) | – |
| no binding | binds | PARP2 (endogenous) (from UniProt Q9UGN5 1-583) (enzyme) | – |
| – | binds | TNKS1 (endogenous) (from UniProt O95271-1 1-1327) (enzyme) | – |
| no binding | binds | TNKS2 (endogenous) (enzyme, UniProt Q9H2K2 1-1166) MSGRRCAGGGAACASAAAEAVEPAARELFEACRNGDVERVKRLVTPEKVNSRDTAGRKSTPLHFAAGFGRKDVVEYLLQNGANVQARDDGGLIPLHNACSFGHAEVVNLLLRHGADPNARDNWNYTPLHEAAIKGKIDVCIVLLQHGAEPTIRNTDGRTALDLADPSAKAVLTGEYKKDELLESARSGNEEKMMALLTPLNVNCHASDGRKSTPLHLAAGYNRVKIVQLLLQHGADVHAKDKGDLVPLHNACSYGHYEVTELLVKHGACVNAMDLWQFTPLHEAASKNRVEVCSLLLSYGADPTLLNCHNKSAIDLAPTPQLKERLAYEFKGHSLLQAAREADVTRIKKHLSLEMVNFKHPQTHETALHCAAASPYPKRKQICELLLRKGANINEKTKEFLTPLHVASEKAHNDVVEVVVKHEAKVNALDNLGQTSLHRAAYCGHLQTCRLLLSYGCDPNIISLQGFTALQMGNENVQQLLQEGISLGNSEADRQLLEAAKAGDVETVKKLCTVQSVNCRDIEGRQSTPLHFAAGYNRVSVVEYLLQHGADVHAKDKGGLVPLHNACSYGHYEVAELLVKHGAVVNVADLWKFTPLHEAAAKGKYEICKLLLQHGADPTKKNRDGNTPLDLVKDGDTDIQDLLRGDAALLDAAKKGCLARVKKLSSPDNVNCRDTQGRHSTPLHLAAGYNNLEVAEYLLQHGADVNAQDKGGLIPLHNAASYGHVDVAALLIKYNACVNATDKWAFTPLHEAAQKGRTQLCALLLAHGADPTLKNQEGQTPLDLVSADDVSALLTAAMPPSALPSCYKPQVLNGVRSPGATADALSSGPSSPSSLSAASSLDNLSGSFSELSSVVSSSGTEGASSLEKKEVPGVDFSITQFVRNLGLEHLMDIFEREQITLDVLVEMGHKELKEIGINAYGHRHKLIKGVERLISGQQGLNPYLTLNTSGSGTILIDLSPDDKEFQSVEEEMQSTVREHRDGGHAGGIFNRYNILKIQKVCNKKLWERYTHRRKEVSEENHNHANERMLFHGSPFVNAIIHKGFDERHAYIGGMFGAGIYFAENSSKSNQYVYGIGGGTGCPVHKDRSCYICHRQLLFCRVTLGKSFLQFSAMKMAHSPPGHHSVTGRPSVNGLALAEYVIYRGEQAYPEYLITYQIMRPEGMVDG | – |
| – | – | TNKS1 (endogenous), O95271-1 1-1327 (enzyme) MAASRRSQHHHHHHQQQLQPAPGASAPPPPPPPPLSPGLAPGTTPASPTASGLAPFASPRHGLALPEGDGSRDPPDRPRSPDPVDGTSCCSTTSTICTVAAAPVVPAVSTSSAAGVAPNPAGSGSNNSPSSSSSPTSSSSSSPSSPGSSLAESPEAAGVSSTAPLGPGAAGPGTGVPAVSGALRELLEACRNGDVSRVKRLVDAANVNAKDMAGRKSSPLHFAAGFGRKDVVEHLLQMGANVHARDDGGLIPLHNACSFGHAEVVSLLLCQGADPNARDNWNYTPLHEAAIKGKIDVCIVLLQHGADPNIRNTDGKSALDLADPSAKAVLTGEYKKDELLEAARSGNEEKLMALLTPLNVNCHASDGRKSTPLHLAAGYNRVRIVQLLLQHGADVHAKDKGGLVPLHNACSYGHYEVTELLLKHGACVNAMDLWQFTPLHEAASKNRVEVCSLLLSHGADPTLVNCHGKSAVDMAPTPELRERLTYEFKGHSLLQAAREADLAKVKKTLALEIINFKQPQSHETALHCAVASLHPKRKQVTELLLRKGANVNEKNKDFMTPLHVAAERAHNDVMEVLHKHGAKMNALDTLGQTALHRAALAGHLQTCRLLLSYGSDPSIISLQGFTAAQMGNEAVQQILSESTPIRTSDVDYRLLEASKAGDLETVKQLCSSQNVNCRDLEGRHSTPLHFAAGYNRVSVVEYLLHHGADVHAKDKGGLVPLHNACSYGHYEVAELLVRHGASVNVADLWKFTPLHEAAAKGKYEICKLLLKHGADPTKKNRDGNTPLDLVKEGDTDIQDLLRGDAALLDAAKKGCLARVQKLCTPENINCRDTQGRNSTPLHLAAGYNNLEVAEYLLEHGADVNAQDKGGLIPLHNAASYGHVDIAALLIKYNTCVNATDKWAFTPLHEAAQKGRTQLCALLLAHGADPTMKNQEGQTPLDLATADDIRALLIDAMPPEALPTCFKPQATVVSASLISPASTPSCLSAASSIDNLTGPLAELAVGGASNAGDGAAGTERKEGEVAGLDMNISQFLKSLGLEHLRDIFETEQITLDVLADMGHEELKEIGINAYGHRHKLIKGVERLLGGQQGTNPYLTFHCVNQGTILLDLAPEDKEYQSVEEEMQSTIREHRDGGNAGGIFNRYNVIRIQKVVNKKLRERFCHRQKEVSEENHNHHNERMLFHGSPFINAIIHKGFDERHAYIGGMFGAGIYFAENSSKSNQYVYGIGGGTGCPTHKDRSCYICHRQMLFCRVTLGKSFLQFSTMKMAHAPPGHHSVIGRPSVNGLAYAEYVIYRGEQAYPEYLITYQIMKPEAPSQTATAAEQKT | binding [4]: no binding |

Results are given in words; binding and its absence hold for the method and conditions named. In cells and extracts the contact can be indirect. These calls come from enrichment with a bait or labelling near it, and not all partners need be listed. For some assays here: No binding means not detected with the bait.
